From PubChem BioAssay AID1347423 (Functional Genomics Laboratory (NCATS/FGL), 2020)
Out of some 52,000 sequences screened, about 210 (0.4%) were called active.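 The calls were made as follows: active = gene whose silencing raises cell survival under the drug, median off-target-corrected z-score across its silencing RNAs 2 or more; inactive = the rest.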 This is one part of the list.

Test: Resistance to Poly (ADP-Ribose) Polymerase inhibitor: Gene Identification via Genome-wide siRNA Screen
Settings: mouse BRCA2 R2336H ES cells, olaparib, CellTiter-Glo viability; active compounds read high
How it was run: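 Mouse BRCA2 R2336H ES cells were reverse-transfected with siRNA (20 nM final), treated at 48 h with 500 nM olaparib, and read by CellTiter-Glo after 72 h. Scores: MAD-based z per siRNA, median per gene, seed off-target correction.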

Sequence | z-score
GGUGACUGACAUGAUGAUATT against Pard6b | inactive: -1.65
GGAAAUUGAUAAAGACAGATT against D19Ertd737e | inactive: -0.811
GGGAAGUCACUUUUGUUCCTT against Top2a | inactive: -1.25
GGCGGUACCUCUUCUUCAUTT against Aipl1 | inactive: 0.293
GGAUUCAUCAUCUACCCGGTT against C1ql4 | inactive: 0.998
GCUGUCUUUGAACUAUAUATT against Cd200r4 | inactive: 1.7
GCAGGCUGCUCGAGAUAAATT against Mitc1 | inactive: -1.43
CCGAAAUCCUACAUAUAUGTT against B430209F14Rik | inactive: -0.628
GGUAUAGAUCAGAAGAACUTT against 3110001I22Rik | inactive: -0.505
GGAAGCAUCCUUUGAUGAGTT against Afm | inactive: -0.168
GCGGACAGGCACAGAAAAATT against Usp3 | inactive: 0.156
GGAACGAUAAGCAACUUUGTT against BC003993 | inactive: -1.89
GCAAGGAAAAUCUAUACCGTT against Rgs2 | inactive: -0.0748
GUUCAAGAGGGAGCUGGAATT against Pomc1 | inactive: 1.41
GCCAGUCCUGAUAGCAUCATT against Psx1 | inactive: 0.143
GCUUUACGUUCAAGUUUAGTT against Ranbp2 | inactive: -2.81
GAACUGGAGAUCUUCGAACTT against Ltc4s | inactive: -1.53
CAUGUUAUCACUUUUUGGCTT against 2310002F18Rik | inactive: 0.73
GGAAAUGACCUACGAAGAATT against C230090D14 | inactive: 2.31
GGUCGCCUAUUUCAAGAUATT against Lepre1 | inactive: -0.444
GGUAGCUAUCAAGGUCAUCTT against Hunk | inactive: -0.704
CCACUAUUAAACUUCUCAATT against Pex3 | inactive: -0.153
GGUUUGUUAGACCAUUACGTT against Fgfr1op | inactive: 0.0795
CCUUGUAUUCCCAUCAUGCTT against AI467606 | inactive: 1.49
GGCCACCUUCUUUGAGGUATT against Snai1 | inactive: 0.157
GGAAAGAGAACAUAAAAGATT against Pla2g4a | inactive: -0.269

Sequence | z-score
GCACUAAGUCCCAUGUGUCTT against Trim11 | inactive: -0.803
GCAGACGAGUACCUAGAAATT against 9830147J24Rik | inactive: -2.66
GGCGACAUUACAGAAUUGGTT against Iqsec2 | inactive: 1.21
GGCGAAAAGCGACGCGGCCTT against Basp1 | inactive: 0.954
GGAUUACAAGACCAUAGAUTT against Ocilrp1 | inactive: 0.0141
CGGCUCUUAACAUUUUCAGTT against Eef2 | inactive: -2.06
CCAAUCCAAACGAAGUUAATT against Rgs9 | inactive: 0.136
GCUAUGAGAUGUAUCCCGGTT against E330017N17 | inactive: 0.336
GGAUGUUGCUCCAAGUGGATT against Gpr66 | inactive: 0.667
GGCUGACAUUAAAAAGGCATT against 4732437J24Rik | inactive: 0.845
GGUGUGUUUGCUAUUUCCATT against Olfr259 | inactive: 1.28
GGAAGCAAACUUAAAGUGUTT against Ewsr1 | inactive: -1.5
GCAAAUGUUCGGUAAUUUGTT against BC003281 | inactive: 0.377
UGUGGAACCCAGCACUUUUTT against Olfr458 | inactive: -1.39
GGGAAUUGAUCUAAUUGAATT against E2f5 | inactive: 2.28
GGAACAUCACUAACAAGUCTT against Cacna1g | inactive: 0.592
GGUAGAAAAUGAUACGUCUTT against Pdcd1lg2 | inactive: -0.0726
GGUACCUAGGAUGCUCUCATT against AI661311 | inactive: -1.58
GAUGUGGCACCCAAACAUCTT against Cdc34 | inactive: 0.443
CGAGUGGCUACUUUCCACUTT against Olfr152 | inactive: -1.5
GGUGCACUACACCACAAACTT against D5Ertd593e | inactive: -0.662
GCCAAGCCAUCUCAUUAAATT against Wdr18 | inactive: 0.596
GUUUUACAAAUUCCUCCAUTT against Olfr1447 | inactive: -1.41
GGCUUUGUCUUGAAUGGCUTT against Emr1 | inactive: 2.5
CCAGCAAGCAAGAUUCCUGTT against 2810409H07Rik | inactive: 0.479
CCUCUCAACCACUGACUGATT against 2610029K21Rik | inactive: -2.26

Sequence | z-score
GCCAUGUUCUUUGCUCCCATT against Pigl | inactive: 0.229
GGAAGUUAUAAAACAGAACTT against Inpp1 | inactive: 0.809
GCGAGUGUAUCUCAACAGCTT against Pitpnc1 | inactive: 0.436
GGAGUUUGUCAACUUCUUCTT against Mcoln3 | inactive: -0.586
GCCGCACUGUAACUUCAUCTT against D830039M14Rik | inactive: -0.139
GCAUGAUGUGGAGACAAGATT against 2310007F04Rik | inactive: 0.492
GGAGAAUUACUCCUUUUUGTT against BC019367 | inactive: 0.112
CCUGCGUUAAGUGAUAAAGTT against Blm | inactive: -0.234
GGUUGAUGCCGUGAACUCUTT against Pdxk | inactive: 0.302
CGACUUGGAACUCACUGGUTT against LOC268885 | inactive: 1.44
CCACCGUACUAAACUAUUCTT against Emilin1 | inactive: 1.21
CCAUUAUGGGAGGAAGAUUTT against A330019N05Rik | inactive: 0.247
GGUCCCAAGUCCCUAAGAUTT against A930021G21Rik | inactive: -1.81
GCCUGGUAGUUAGUCAGAATT against Tieg3 | inactive: -0.554
GGGAAAAUAUCAGCUCAAUTT against D930048N14Rik | inactive: -2.2
GGUGGCCAAACAGGAAAAGTT against Fau | inactive: -2.49
GGUGCUUACUGAUUUUUGUTT against 1810015M01Rik | inactive: -0.437
GGAGCUUGAUUCAGGAUGGTT against Ttc3 | inactive: 0.555
GGCAUGAAUAUGCAUUUAGTT against Arrdc3 | inactive: -1.53
GGUACUAGAUAGGAAACACTT against BC006662 | inactive: -0.0265
CGAUUUCAUCGAACACUUCTT against Ccnd1 | inactive: -0.412
CCCUGAAACCUCGGUGUUUTT against AI662250 | inactive: -0.418
GCCUUGUAUCGUCAUGUGATT against Card14 | inactive: 0.0924
GGCUAUAAAAGGUACUGAGTT against Myocd | inactive: 0.462
GGAGUCCUAGAACACACAGTT against Snap29 | inactive: -2.41
GGACGUGUAGCUUGGAAUATT against Rnf26 | inactive: 0.289

Copied from the listing for reference:
Sequence | z-score
GGUCCCAAGUCCCUAAGAUTT against A930021G21Rik | inactive: -1.81
GCCUGGUAGUUAGUCAGAATT against Tieg3 | inactive: -0.554
GGGAAAAUAUCAGCUCAAUTT against D930048N14Rik | inactive: -2.2
GGUGGCCAAACAGGAAAAGTT against Fau | inactive: -2.49
GGUGCUUACUGAUUUUUGUTT against 1810015M01Rik | inactive: -0.437

(further entries)

Sequence | z-score
GCAACAGGUUCGUGUAACCTT against 2310039E09Rik | inactive: 0.149
GGUAUUUCGGCAACUAUCUTT against 9630044M06 | inactive: 0.715
GCGAAAAACGGUCACCUAUTT against Tom1l2 | inactive: -1.75
GGAUGUAGCACUCAAACUUTT against Usp6nl | inactive: -0.175
CGGCAUCUAAUCAGUUUAATT against Farp1 | inactive: 1.35
GCGACAGGACUUCAUUACUTT against Pit1 | inactive: -0.803
CGUAAACAUAUAGGACUGGTT against Ssty1 | inactive: 0.5
GCCAGUUUAAGUCUCUCCATT against 8430437G11Rik | inactive: -0.391
GGACAUCGUGCAAUACGCATT against Vangl1 | inactive: 1.53
CCAAACGUGCCUCUAAGUUTT against Vkorc1 | inactive: 1.17
GCAAAUUUGCCAAGUCAAATT against AW060207 | inactive: 0.659
GGCCAGCUAGAGUUAUAUGTT against A430097D04Rik | inactive: 0.723
CCUUCACUAUAUUCAACUUTT against Olfr479 | inactive: -0.023
GGAAACACUUGAACAAAGATT against Tph2 | inactive: -0.381
CCACAACUAUGAGUCUAUUTT against Ech1 | inactive: 0.791
GCACUUUGCCAGAUAUAACTT against Glipr1 | inactive: 0.528
GGGAGUAGCUCUAUUCAGATT against 2610044O15Rik | inactive: 0.428
CCAAUGAUAGACUUUAUACTT against Mass1 | inactive: 0.0768
GCCUCUGUUCUGACCAUAGTT against Gm128 | inactive: 0.7
GCCCAUGGGAUGUUCAACUTT against Nos1 | inactive: -1.42
CCUCUGUUAUGGUAAUUCUTT against Olfr1323 | inactive: -1.11
GCUAAGGCUUGGAAUGACATT against Maged1 | inactive: -1.85
CGUGAAUGAGUCUAUACUGTT against Nola3 | inactive: -1.25
GGAGCAAUUCAAAUUCAAATT against 2310065K24Rik | inactive: 1.63
GGACAAUUAAGAUAGCCAUTT against FHOS2 | inactive: 0.599
CCCAGGAACUAUGAGUUGUTT against Rnf31 | inactive: 0.441

Shown in markdown: part of the list above

| Sequence | z-score |
| --- | --- |
| GGUCCCAAGUCCCUAAGAUTT against A930021G21Rik | inactive: -1.81 |
| GCCUGGUAGUUAGUCAGAATT against Tieg3 | inactive: -0.554 |
